In PMC7862700:
The entries are a selection whose mix differs from that of the whole data set. At the low end of the ranking the order means little.

Tests used:
Assay in all cases: DAPPL (digital affinity profiling via proximity ligation, sequencing)
Conditions in all cases: 10 mM Tris-HCl pH 7.5, 50 mM NaCl, 1 mM DTT, 4% glycerol, room temperature, 30 min; GST-TFs on glutathione beads, 16-mer random dsDNA library, 0.1% …; high values mean tight binding; double strand, one strand shown; scale: fold enrichment (6-mer frequency, TF over GST control)
[1] = molecular target: T1, ELK1 (UniProt P19419)
T1 sequence: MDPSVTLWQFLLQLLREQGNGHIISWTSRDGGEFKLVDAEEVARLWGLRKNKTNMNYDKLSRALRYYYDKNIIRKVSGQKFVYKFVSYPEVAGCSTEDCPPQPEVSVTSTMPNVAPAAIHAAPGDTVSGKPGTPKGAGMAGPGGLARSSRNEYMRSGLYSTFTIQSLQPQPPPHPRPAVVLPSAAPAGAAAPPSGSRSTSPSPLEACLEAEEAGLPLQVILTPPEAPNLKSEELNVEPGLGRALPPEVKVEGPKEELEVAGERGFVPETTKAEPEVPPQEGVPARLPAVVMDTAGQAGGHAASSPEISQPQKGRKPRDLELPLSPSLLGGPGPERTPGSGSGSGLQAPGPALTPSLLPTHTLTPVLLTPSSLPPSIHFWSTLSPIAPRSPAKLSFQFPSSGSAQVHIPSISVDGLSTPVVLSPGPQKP

[2] = molecular target: T2, ELK3 (UniProt P41970)
T2 sequence: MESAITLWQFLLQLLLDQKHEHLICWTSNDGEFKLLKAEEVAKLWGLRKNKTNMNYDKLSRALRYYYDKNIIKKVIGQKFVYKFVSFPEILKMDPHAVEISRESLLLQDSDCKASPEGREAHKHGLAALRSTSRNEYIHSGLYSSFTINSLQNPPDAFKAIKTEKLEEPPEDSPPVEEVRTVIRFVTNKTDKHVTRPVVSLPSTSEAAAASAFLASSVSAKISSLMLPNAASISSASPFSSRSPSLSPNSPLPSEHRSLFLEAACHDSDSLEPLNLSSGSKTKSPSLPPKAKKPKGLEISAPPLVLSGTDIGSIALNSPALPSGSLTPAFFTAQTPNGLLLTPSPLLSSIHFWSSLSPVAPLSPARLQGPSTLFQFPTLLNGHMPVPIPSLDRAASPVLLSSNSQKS

[3] = molecular target: T3, SPIC (UniProt Q8N5J4)
T3 sequence: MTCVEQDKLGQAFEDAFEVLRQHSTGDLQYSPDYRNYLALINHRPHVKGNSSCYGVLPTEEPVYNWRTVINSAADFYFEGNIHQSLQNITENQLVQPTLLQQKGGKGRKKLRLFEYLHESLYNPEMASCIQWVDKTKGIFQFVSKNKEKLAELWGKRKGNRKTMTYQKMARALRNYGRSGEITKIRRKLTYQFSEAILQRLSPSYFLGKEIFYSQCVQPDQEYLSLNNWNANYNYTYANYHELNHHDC

[4] = molecular target: T4, ETS2 (UniProt P15036)
T4 sequence: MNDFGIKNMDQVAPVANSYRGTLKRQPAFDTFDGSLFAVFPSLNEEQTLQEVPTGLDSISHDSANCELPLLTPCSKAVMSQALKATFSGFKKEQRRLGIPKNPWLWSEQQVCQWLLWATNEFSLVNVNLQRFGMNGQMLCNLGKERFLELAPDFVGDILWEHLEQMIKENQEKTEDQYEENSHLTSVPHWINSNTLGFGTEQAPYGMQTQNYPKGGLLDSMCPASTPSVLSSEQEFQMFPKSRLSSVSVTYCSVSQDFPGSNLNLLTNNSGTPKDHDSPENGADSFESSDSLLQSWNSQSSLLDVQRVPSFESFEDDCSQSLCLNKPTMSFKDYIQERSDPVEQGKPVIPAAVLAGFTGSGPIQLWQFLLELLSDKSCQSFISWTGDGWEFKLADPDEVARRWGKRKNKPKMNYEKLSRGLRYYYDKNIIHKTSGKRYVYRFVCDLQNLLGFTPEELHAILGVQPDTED

[5] = molecular target: T5, ETV3 (UniProt P41162-2)
T5 sequence: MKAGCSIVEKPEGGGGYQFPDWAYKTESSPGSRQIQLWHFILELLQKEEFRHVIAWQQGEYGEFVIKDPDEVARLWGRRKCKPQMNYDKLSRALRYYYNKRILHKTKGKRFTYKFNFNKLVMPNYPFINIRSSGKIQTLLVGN

Q: Which binding signal [1] does the source give for GAGGCA here?
A: 0.407

Q: What about the binding signal [2] of the same sequence?
A: 0.421

Q: And the binding signal [3]?
A: 0.468

Q: And the binding signal [4]?
A: 0.461

Q: And the binding signal [5]?
A: 0.427

Q: What does the source list for CGGGCC?
A: binding signal [1]: 0.73; binding signal [2]: 0.735; binding signal [3]: 0.652; binding signal [4]: 0.742; binding signal [5]: 0.813

Q: GACGGC was tested. Which binding signal [1] did it give?
A: 0.787

Q: And the binding signal [2]?
A: 0.739

Q: And the binding signal [3]?
A: 0.822

Q: What about the binding signal [4] of the same sequence?
A: 0.818

Q: And the binding signal [5]?
A: 0.777

Q: TCAGGC was tested. Which binding signal [1] did it give?
A: 0.723

Q: And the binding signal [2]?
A: 0.809

Q: And the binding signal [3]?
A: 0.827

Q: And the binding signal [4]?
A: 0.703

Q: And the binding signal [5]?
A: 0.709

Q: AACGTG was tested. Which binding signal [1] did it give?
A: 0.358

Q: And the binding signal [2]?
A: 0.359

Q: And the binding signal [3]?
A: 0.381

Q: What about the binding signal [4] of the same sequence?
A: 0.364

Q: And the binding signal [5]?
A: 0.382

Q: Which binding signal [1] does the source give for AGTCAA here?
A: 0.609

Q: And the binding signal [2]?
A: 0.652

Q: And the binding signal [3]?
A: 0.562

Q: What about the binding signal [4] of the same sequence?
A: 0.595

Q: And the binding signal [5]?
A: 0.634

Q: For AGGGTA, which binding signal [1] is on record?
A: 0.854

Q: What about the binding signal [2] of the same sequence?
A: 0.876

Q: What about the binding signal [3] of the same sequence?
A: 0.905

Q: What about the binding signal [4] of the same sequence?
A: 0.877

Q: And the binding signal [5]?
A: 0.843

Q: With CAGTTT as the sequence, how does the binding signal [1] read?
A: 0.924

Q: What about the binding signal [2] of the same sequence?
A: 1.04

Q: What about the binding signal [3] of the same sequence?
A: 0.897

Q: And the binding signal [4]?
A: 0.871

Q: What about the binding signal [5] of the same sequence?
A: 0.973

Q: GGCCAA was tested. Which binding signal [1] did it give?
A: 0.808

Q: And the binding signal [2]?
A: 0.807

Q: What about the binding signal [3] of the same sequence?
A: 0.795

Q: What about the binding signal [4] of the same sequence?
A: 0.809

Q: What about the binding signal [5] of the same sequence?
A: 0.829

Q: How did the binding signal [1] turn out when CGGGAG was run?
A: 0.202

Q: And the binding signal [2]?
A: 0.225

Q: What about the binding signal [3] of the same sequence?
A: 0.186

Q: What about the binding signal [4] of the same sequence?
A: 0.206

Q: And the binding signal [5]?
A: 0.216

Q: Which results are given for TCGTAA?
A: binding signal [1]: 0.864; binding signal [2]: 0.928; binding signal [3]: 0.962; binding signal [4]: 0.938; binding signal [5]: 0.972

Q: AACAGT was tested. Which binding signal [1] did it give?
A: 0.669

Q: What about the binding signal [2] of the same sequence?
A: 0.68

Q: And the binding signal [3]?
A: 0.666

Q: And the binding signal [4]?
A: 0.643

Q: What about the binding signal [5] of the same sequence?
A: 0.739

Q: Which results are given for GGAACG?
A: binding signal [1]: 0.651; binding signal [2]: 0.632; binding signal [3]: 0.649; binding signal [4]: 0.589; binding signal [5]: 0.656

Q: Which results are given for GCCCAG?
A: binding signal [1]: 0.768; binding signal [2]: 0.749; binding signal [3]: 0.714; binding signal [4]: 0.771; binding signal [5]: 0.724

Q: How did the binding signal [1] turn out when ACTGTG was run?
A: 0.444

Q: And the binding signal [2]?
A: 0.501

Q: And the binding signal [3]?
A: 0.435

Q: What about the binding signal [4] of the same sequence?
A: 0.507

Q: What about the binding signal [5] of the same sequence?
A: 0.469

Q: Which binding signal [1] does the source give for TGGAGA here?
A: 0.366

Q: And the binding signal [2]?
A: 0.424

Q: What about the binding signal [3] of the same sequence?
A: 0.48

Q: And the binding signal [4]?
A: 0.417

Q: What about the binding signal [5] of the same sequence?
A: 0.438

Q: With AGGGGG as the sequence, how does the binding signal [1] read?
A: 0.628

Q: What about the binding signal [2] of the same sequence?
A: 0.544

Q: What about the binding signal [3] of the same sequence?
A: 0.626

Q: What about the binding signal [4] of the same sequence?
A: 0.603

Q: What about the binding signal [5] of the same sequence?
A: 0.601

Q: How did the binding signal [1] turn out when TTGTGA was run?
A: 0.82

Q: And the binding signal [2]?
A: 0.683

Q: What about the binding signal [3] of the same sequence?
A: 0.791

Q: And the binding signal [4]?
A: 0.839

Q: And the binding signal [5]?
A: 0.731

Q: What does the source list for AAGTGA?
A: binding signal [1]: 0.62; binding signal [2]: 0.681; binding signal [3]: 0.635; binding signal [4]: 0.581; binding signal [5]: 0.698

Q: What does the source list for GACGTC?
A: binding signal [1]: 0.825; binding signal [2]: 0.911; binding signal [3]: 0.7; binding signal [4]: 0.844; binding signal [5]: 0.808
